According to US12577231B2, “Androgen receptor PROTACS” (GlaxoSmithKline Intellectual Property Development Limited, priority 2023, dated 2026):
Some results were stated once for a whole list of compounds, not compound by compound.

Target: T1, Androgen Receptor dual T878A/L702H mutant protein (Homo sapiens, UniProt P10275, L702H/T878A)
T1 construct: host or cells: MDA-PCa-2b
T1 sequence (P10275 1-920 L702H/T878A): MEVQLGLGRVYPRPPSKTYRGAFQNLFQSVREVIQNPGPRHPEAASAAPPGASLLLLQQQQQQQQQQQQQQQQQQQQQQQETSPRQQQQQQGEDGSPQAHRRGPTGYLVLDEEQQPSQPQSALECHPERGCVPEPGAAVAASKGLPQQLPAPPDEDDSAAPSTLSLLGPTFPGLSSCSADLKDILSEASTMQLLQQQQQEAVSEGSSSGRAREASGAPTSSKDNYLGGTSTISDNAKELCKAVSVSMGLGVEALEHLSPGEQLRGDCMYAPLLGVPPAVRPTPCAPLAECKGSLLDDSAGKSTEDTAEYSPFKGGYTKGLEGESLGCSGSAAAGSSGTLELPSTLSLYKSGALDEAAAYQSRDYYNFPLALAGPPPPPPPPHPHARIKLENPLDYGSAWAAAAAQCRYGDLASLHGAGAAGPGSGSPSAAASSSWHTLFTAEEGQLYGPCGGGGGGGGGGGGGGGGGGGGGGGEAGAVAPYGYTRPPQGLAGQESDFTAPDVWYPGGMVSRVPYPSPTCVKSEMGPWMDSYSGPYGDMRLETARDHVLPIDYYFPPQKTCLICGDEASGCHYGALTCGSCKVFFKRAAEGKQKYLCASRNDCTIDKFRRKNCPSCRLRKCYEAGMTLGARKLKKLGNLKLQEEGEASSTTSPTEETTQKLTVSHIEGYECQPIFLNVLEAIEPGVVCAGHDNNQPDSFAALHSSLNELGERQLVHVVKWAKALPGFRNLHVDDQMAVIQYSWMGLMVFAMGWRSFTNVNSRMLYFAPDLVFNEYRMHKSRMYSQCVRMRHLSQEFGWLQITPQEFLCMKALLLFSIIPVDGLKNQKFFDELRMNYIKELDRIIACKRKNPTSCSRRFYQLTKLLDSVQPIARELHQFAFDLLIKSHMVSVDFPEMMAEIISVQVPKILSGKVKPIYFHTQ
Experiment: Dual Mutant (T878A/L702H) Androgen Receptor Degradation Assay (HTRF, MDA-PCa-2b cells)
Assay type: cell-based
Conditions: 18 h incubation
Description: Degradation of Androgen Receptor dual T878A/L702H mutant protein in human MDA-PCa-2b (ATCC) cells treated with PROTACs was quantified using the HTRF Human Androgen Receptor Detection Kit (PerkinElmer) in 384 well assay plate format. 10 mM DMSO (Sigma-Aldrich) stock solutions of PROTACs were prepared and diluted across an 11 concentration, 3-fold increment range, and 25 nL dispensed into a white opaque bottomed 384 well assay plate (Thermofisher) using an acoustic ECHO dispenser (Labcyte). Cells were cultured in growth medium (BRFF—HPC-1 (Athena ES) supplemented with 20% FBS (Gibco), penicillin 50U/mL and streptomycin 50 μg/mL (Gibco, #15140-122)) in collagen I or poly-D-lysine coated T175 flasks (Corning, #356487 or #356539, respectively). For the assay, cells were harvested from the flask, centrifuged at 200 g for 5 min and then resuspended in the growth medium. 25 μl of cell suspension containing 10,000 cells was dispensed into each well of the assay plate containing the test compounds, which was then incubated for 18 h at 37° C./5% CO2. Control wells were included on each assay plate, with assay medium without cells being the no AR remaining 100% effect control, and cells treated with DMSO vehicle only, without PROTAC, the 0% effect control. After 18 h incubation 8 μl of supplemented lysis buffer from HTRF kit was added to each well and the plate shaken at 500 rpm for 1 h at room temperature. 8 μl of antibody mix in Detection buffer from HTRF kit was added to each well and the plate was incubated for 2 h in dark at mom temperature. The fluorescence was measured at both 620 nm and 665 nm using an excitation wavelength of 337 nm with a PHERAstar microplate reader (BMG Labtech) and the % AR protein remaining in each well was calculated by normalising the HTRF ratio (665 nm signal/620 nm signal) value to the control wells mentioned above. Parameters corresponding to the potency and efficacy estimates of the PROTACs were obtained from these normalised values using curve fitting software (IDBS ActivityBase). These included the DC50 and the Dmax estimates. Two versions of the DC50, called relative DC50 and absolute DC50, were typically generated. These are the inflection point of a fitted 4 parameter sigmoidal response curve and the interpolated concentration of PROTAC corresponding to 50% of the protein being degraded, respectively. The Dmax parameter was the maximum experimentally observed degradation and the asymptote max parameter the fitted response curve asymptote maximum.

SMILES: Cc1c(O[C@H]2C(C)(C)[C@H](NC(=O)c3ccc(N4CCC(CN5CCC(n6ncc7c(N8CCC(=O)NC8=O)cccc76)CC5)CC4)c(F)c3)C2(C)C)ccc(C#N)c1Cl [Example 2, N-((1r,3r)-3-(3-Chloro-4-cyano-2-methylphenoxy)-2,2,4,4-tetramethylcyclobutyl)-4-(4-((4-(4-(2,4-dioxotetrahydropyrimidin-1(2H)-yl)-1H-indazol-1-yl)piperidin-1-yl)methyl)piperidin-1-yl)-3-fluorobenzamide]
- mean relative pDC50: ≥ 6.0

SMILES: Cc1ccc2c(O[C@H]3C(C)(C)[C@H](NC(=O)c4ccc(N5CCC(CN6CCC(n7ncc8c(N9CCC(=O)NC9=O)cccc87)CC6)CC5)c(F)c4)C3(C)C)ccc(C#N)c2n1 [Example 7, N-((1r,3r)-3-((8-cyano-2-methylquinolin-5-yl)oxy)-2,2,4,4-tetramethylcyclobutyl)-4-(4-((4-(4-(2,4-dioxotetrahydropyrimidin-1(2H)-yl)-1H-indazol-1-yl)piperidin-1-yl)methyl)piperidin-1-yl)-3-fluorobenzamide]
- mean relative pDC50: ≥ 6.0

SMILES: CC1(C)[C@H](NC(=O)c2ccc(N3CCC(CN4CCC(n5ncc6c(N7CCC(=O)NC7=O)cc(F)cc65)CC4)CC3)c(F)c2)C(C)(C)[C@H]1Oc1ccc(C#N)c(Cl)c1 [Example 11, N-((1r,3r)-3-(3-Chloro-4-cyanophenoxy)-2,2,4,4-tetramethylcyclobutyl)-4-(4-((4-(4-(2,4-dioxotetrahydropyrimidin-1(2H)-yl)-6-fluoro-1H-indazol-1-yl)piperidin-1-yl)methyl)piperidin-1-yl)-3-fluorobenzamide]
- mean relative pDC50: ≥ 6.0

SMILES: CC1(C)[C@H](NC(=O)c2ccc(N3CCC(CN4CCC(n5ccc6c(N7CCC(=O)NC7=O)c(F)ccc65)CC4)CC3)c(F)c2)C(C)(C)[C@H]1Oc1ccc(C#N)c(Cl)c1 [Example 12, N-((1r,3r)-3-(3-Chloro-4-cyanophenoxy)-2,2,4,4-tetramethylcyclobutyl)-4-(4-((4-(4-(2,4-dioxotetrahydropyrimidin-1(2H)-yl)-5-fluoro-1H-indol-1-yl)piperidin-1-yl)methyl)piperidin-1-yl)-3-fluorobenzamide]
- mean relative pDC50: ≥ 6.0

SMILES: CC1(C)[C@H](NC(=O)c2ccc(N3CCC(CN4CCC(n5ncc6c(N7CCC(=O)NC7=O)c(F)ccc65)CC4)CC3)c(F)c2)C(C)(C)[C@H]1Oc1ccc(C#N)c(Cl)c1 [Example 13, N-((1r,3r)-3-(3-Chloro-4-cyanophenoxy)-2,2,4,4-tetramethylcyclobutyl)-4-(4-((4-(4-(2,4-dioxotetrahydropyrimidin-1(2H)-yl)-5-fluoro-1H-indazol-1-yl)piperidin-1-yl)methyl)piperidin-1-yl)-3-fluorobenzamide]
- mean relative pDC50: ≥ 6.0

SMILES: COc1cc(O[C@H]2C(C)(C)[C@H](NC(=O)c3ccc(N4CCC(CN5CCC(n6ccc7c(N8CCC(=O)NC8=O)cccc76)CC5)CC4)c(F)c3)C2(C)C)ccc1C#N [Example 22, N-((1r,3r)-3-(4-Cyano-3-methoxyphenoxy)-2,2,4,4-tetramethylcyclobutyl)-4-(4-((4-(4-(2,4-dioxotetrahydropyrimidin-1(2H)-yl)-1H-indol-1-yl)piperidin-1-yl)methyl)piperidin-1-yl)-3-fluorobenzamide]
- mean relative pDC50: ≥ 6.0

SMILES: COc1cc(O[C@H]2C(C)(C)[C@H](NC(=O)c3ccc(N4CCC(CN5CC[C@H](n6ncc7c(N8CCC(=O)NC8=O)cccc76)[C@H](F)C5)CC4)c(F)c3)C2(C)C)ccc1C#N [Example 26, N-((1r,3r)-3-(4-Cyano-3-methoxyphenoxy)-2,2,4,4-tetramethylcyclobutyl)-4-(4-(((3R,4S)-4-(4-(2,4-dioxotetrahydropyrimidin-1(2H)-yl)-1H-indazol-1-yl)-3-fluoropiperidin-1-yl)methyl)piperidin-1-yl)-3-fluorobenzamide]
- mean relative pDC50: ≥ 6.0

SMILES: COc1cc(O[C@H]2C(C)(C)[C@H](NC(=O)c3ccc(N4CCC(CN5CC[C@@H](n6ncc7c(N8CCC(=O)NC8=O)cccc76)[C@@H](F)C5)CC4)c(F)c3)C2(C)C)ccc1C#N [Example 27, N-((1r,3r)-3-(4-Cyano-3-methoxyphenoxy)-2,2,4,4-tetramethylcyclobutyl)-4-(4-(((3,4R)-4-(4-(2,4-dioxotetrahydropyrimidin-1(2H)-yl)-1H-indazol-1-yl)-3-fluoropiperidin-1-yl)methyl)piperidin-1-yl)-3-fluorobenzamide]
- mean relative pDC50: ≥ 6.0

SMILES: CC1(C)[C@H](NC(=O)c2ccc(N3CC[C@@H](CN4CCC(n5ncc6c(N7CCC(=O)NC7=O)cccc65)CC4)C3)c(F)c2)C(C)(C)[C@H]1Oc1ccc(C#N)c2ncccc12 [Example 33, N-((1r,3S)-3-((8-Cyanoquinolin-5-yl)oxy)-2,2,4,4-tetramethylcyclobutyl)-4-((S)-3-((4-(4-(2,4-dioxotetrahydropyrimidin-1(2H)-yl)-1H-indazol-1-yl)piperidin-1-yl)methyl)pyrrolidin-1-yl)-3-fluorobenzamide]
- mean relative pDC50: ≥ 6.0

SMILES: CC1(C)[C@H](NC(=O)c2ccc(N3CC[C@H](CN4CCC(n5ncc6c(N7CCC(=O)NC7=O)cccc65)CC4)C3)c(F)c2)C(C)(C)[C@H]1Oc1ccc(C#N)c2ncccc12 [Example 34, N-((1r,3R)-3-((8-Cyanoquinolin-5-yl)oxy)-2,2,4,4-tetramethylcyclobutyl)-4-((R)-3-((4-(4-(2,4-dioxotetrahydropyrimidin-1(2H)-yl)-1H-indazol-1-yl)piperidin-1-yl)methyl)pyrrolidin-1-yl)-3-fluorobenzamide]
- mean relative pDC50: ≥ 6.0

SMILES: CC1(C)[C@H](NC(=O)c2ccc(N3CCC(CN4CCC(n5ncc6c(N7CCC(=O)NC7=O)cc(F)cc65)CC4)CC3)c(F)c2)C(C)(C)[C@H]1Oc1ccc(C#N)c2ncccc12 [Example 38, N-((1r,3r)-3-((8-Cyanoquinolin-5-yl)oxy)-2,2,4,4-tetramethylcyclobutyl)-4-(4-((4-(4-(2,4-dioxotetrahydropyrimidin-1(2H)-yl)-6-fluoro-1H-indazol-1-yl)piperidin-1-yl)methyl)piperidin-1-yl)-3-fluorobenzamide]
- mean relative pDC50: ≥ 6.0

SMILES: CC1(C)[C@H](NC(=O)c2ccc(N3CCC(CN4CCC(n5ncc6c(N7CCC(=O)NC7=O)cc(Cl)cc65)CC4)CC3)c(F)c2)C(C)(C)[C@H]1Oc1ccc(C#N)c2ncccc12 [Example 41, 4-(4-((4-(6-Chloro-4-(2,4-dioxotetrahydropyrimidin-1(2H)-yl)-1H-indazol-1-yl)piperidin-1-yl)methyl)piperidin-1-yl)-/-((1r,3r)-3-((8-cyanoquinolin-5-yl)oxy)-2,2,4,4-tetramethylcyclobutyl)-3-fluorobenzamide]
- mean relative pDC50: ≥ 6.0

SMILES: CC1(C)[C@H](NC(=O)c2ccc(N3CCC(CN4CCC(n5ncc6c(N7CCC(=O)NC7=O)cc(C(F)(F)F)cc65)CC4)CC3)c(F)c2)C(C)(C)[C@H]1Oc1ccc(C#N)c2ncccc12 [Example 42, N-((1r,3r)-3-((8-Cyanoquinolin-5-yl)oxy)-2,2,4,4-tetramethylcyclobutyl)-4-(4-((4-(4-(2,4-dioxotetrahydropyrimidin-1(2H)-yl)-6-(trifluoromethyl)-1H-indazol-1-yl)piperidin-1-yl)methyl)piperidin-1-yl)-3-fluorobenzamide]
- mean relative pDC50: ≥ 6.0
